# From US20210260212A1
# Protein sequences, listed by entry. Tags and fused reporters are not part of them. Lines headed by an entry give the natural chain unless they say otherwise; changes in a name come on top.
# UniProt P06729: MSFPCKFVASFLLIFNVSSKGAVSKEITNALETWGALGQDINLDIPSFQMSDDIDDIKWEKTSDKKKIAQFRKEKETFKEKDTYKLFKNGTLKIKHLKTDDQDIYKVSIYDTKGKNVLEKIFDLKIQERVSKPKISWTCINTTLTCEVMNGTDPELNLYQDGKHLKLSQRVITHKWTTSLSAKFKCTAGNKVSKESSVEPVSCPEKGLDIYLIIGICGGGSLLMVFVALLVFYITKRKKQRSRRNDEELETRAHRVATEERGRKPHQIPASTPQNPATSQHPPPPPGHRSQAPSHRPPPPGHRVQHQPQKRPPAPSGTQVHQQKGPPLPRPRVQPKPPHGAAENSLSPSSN
# Results are given in words; binding and its absence hold for the method and conditions named. Some entries that bind do so weakly or less than the wild type.
# B1: RPA-2.10 mIgG1 (murine anti-CD2 antibody) (antibody, V domains shown)
# VH: EVKLVESGGGLVKPGGSLKLSCAASGFTFSSYDMSWVRQTPEKRLEWVASISGGGFLYYLDSVKGRFTISRDNARNILYLHMTSLRSEDTAMYYCARSSYGEIMDYWGQGTSVTVSS
# VL: DILLTQSPAILSVSPGERVSFSCRASQRIGTSIHWYQQRTTGSPRLLIKYASESISGIPSRFSGSGSGTDFTLSINSVESEDVADYYCQQSHGWPFTFGGGTKLEIER
# Experiments:
# [1] = biological target: human CD2 on the surface of cells (MOLT-4 human T lymphoblast cells; primary human T-cells; primary human NK cells) (human) (UniProt P06729); test: flow cytometry on primary human T-cells, secondary AF488 stain, MFI
# [2] = biological target: human CD2 on the surface of cells (MOLT-4 human T lymphoblast cells; primary human T-cells; primary human NK cells) (human) (UniProt P06729); test: flow cytometry on MOLT-4 cells, secondary anti-mouse AF488, gMFI
binder,measurement,setting,value
B1,binding,[1],binds
same,binding,[2],binds
